Residue numbers refer to the chain shown, from its start. Results are given in words; binding and its absence hold for the method and conditions named. Binding seen in cells or lysates may run through a third protein. Some results given as binding are weak or reduced against the parent protein; the word gives no strength.
What was measured:
Assay in all cases: cross-linking
[1] = biological target: T1, FepA S29C (Escherichia coli K-12) (UniProt P05825)
T1 sequence: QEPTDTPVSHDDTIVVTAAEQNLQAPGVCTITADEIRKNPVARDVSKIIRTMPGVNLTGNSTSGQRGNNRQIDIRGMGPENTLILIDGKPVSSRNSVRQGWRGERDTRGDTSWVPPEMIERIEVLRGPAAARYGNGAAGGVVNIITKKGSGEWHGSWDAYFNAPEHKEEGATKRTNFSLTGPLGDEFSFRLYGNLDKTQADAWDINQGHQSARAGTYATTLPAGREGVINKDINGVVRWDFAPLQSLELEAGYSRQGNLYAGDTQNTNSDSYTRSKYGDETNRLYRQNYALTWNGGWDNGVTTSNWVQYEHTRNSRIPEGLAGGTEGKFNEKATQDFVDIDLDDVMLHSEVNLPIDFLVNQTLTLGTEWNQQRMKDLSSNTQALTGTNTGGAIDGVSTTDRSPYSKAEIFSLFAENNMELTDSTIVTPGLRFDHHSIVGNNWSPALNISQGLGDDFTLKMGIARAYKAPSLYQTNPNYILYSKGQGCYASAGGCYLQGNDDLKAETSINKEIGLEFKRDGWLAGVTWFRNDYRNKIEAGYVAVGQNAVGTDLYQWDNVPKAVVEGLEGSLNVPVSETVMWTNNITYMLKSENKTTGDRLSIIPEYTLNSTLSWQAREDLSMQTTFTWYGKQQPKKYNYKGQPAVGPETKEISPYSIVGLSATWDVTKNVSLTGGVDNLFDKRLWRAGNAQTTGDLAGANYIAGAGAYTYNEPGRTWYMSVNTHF

Amino acid sequences for entries named in this document (tags omitted). A change or cut given only in a name is not applied to a line headed by its entry.
UniProt P02929, whole entry, looked up, stated change not applied: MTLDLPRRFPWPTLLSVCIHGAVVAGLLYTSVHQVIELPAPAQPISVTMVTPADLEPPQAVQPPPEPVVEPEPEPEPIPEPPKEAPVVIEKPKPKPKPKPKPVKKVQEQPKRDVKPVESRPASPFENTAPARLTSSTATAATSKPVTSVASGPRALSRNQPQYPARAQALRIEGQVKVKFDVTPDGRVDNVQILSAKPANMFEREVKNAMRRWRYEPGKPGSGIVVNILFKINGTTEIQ

[2] = biological target: T2, FepA R126C (Escherichia coli K-12) (UniProt P05825)
T2 sequence: T1 sequence with C29S, R126C

[3] = biological target: T3, FepA V124C (Escherichia coli K-12) (UniProt P05825)
T3 sequence: T1 sequence with C29S, V124C

Substance | binding [1] | binding [2] | binding [3]
TonB C18G A209C (from UniProt P02929 1-239) | no binding | no binding | no binding
TonB C18G R214C (from UniProt P02929 1-239) | binds | no binding | no binding
TonB C18G R204C (from UniProt P02929 1-239) | binds | no binding | no binding
TonB C18G R212C (from UniProt P02929 1-239) | binds | no binding | no binding
TonB C18G M201C (from UniProt P02929 1-239) | binds | no binding | no binding
TonB C18G N208C (from UniProt P02929 1-239) | binds | no binding | no binding
TonB C18G Q160C (from UniProt P02929 1-239) | binds | no binding | no binding
TonB C18G V206C (from UniProt P02929 1-239) | no binding | no binding | no binding

— paper doi:10.1101/2021.12.08.471779
